Source: the supplement of paper PMC7646827
Structures can show the parent of a compound that is named as a salt. Single values are uncertain, as repeats are few or missing.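 All cells are established human bladder cancer lines, one derived from a patient-derived xenograft. A luminescent ATP assay measured viability as percent inhibition relative to vehicle across seven dilutions. The paper rates scores above 59 very active, 30–59 active, 21–29 semi-active, 9–20 low active, below 9 inactive.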

Key:
Test in all cases: drug sensitivity score DSS3 (score 0-100); higher = more sensitive; extreme values may be limits of the assay
Details in all cases: culture: 3D, ultra-low attachment; treatment time: 5 days
SCaBER = tested on: SCaBER
T-24 = tested on: T-24
SW780 = tested on: SW780
UM-UC-5 = tested on: UM-UC-5
UM-UC-14 = tested on: UM-UC-14
BC8149 = tested on: BC8149
UM-UC-12 = tested on: UM-UC-12
J82 = tested on: J82
UM-UC-18 = tested on: UM-UC-18
UM-UC-6 = tested on: UM-UC-6
5637 = tested on: 5637
UM-UC-1 = tested on: UM-UC-1
UM-UC-9 = tested on: UM-UC-9
UM-UC-15 = tested on: UM-UC-15
UM-UC-3 = tested on: UM-UC-3
UM-UC-17 = tested on: UM-UC-17
TCCSUP = tested on: TCCSUP

| SMILES | drug sensitivity score DSS3 (SCaBER) | drug sensitivity score DSS3 (T-24) | drug sensitivity score DSS3 (SW780) | drug sensitivity score DSS3 (UM-UC-5) | drug sensitivity score DSS3 (UM-UC-14) | drug sensitivity score DSS3 (BC8149) | drug sensitivity score DSS3 (UM-UC-12) | drug sensitivity score DSS3 (J82) | drug sensitivity score DSS3 (UM-UC-18) | drug sensitivity score DSS3 (UM-UC-6) | drug sensitivity score DSS3 5637 | drug sensitivity score DSS3 (UM-UC-1) | drug sensitivity score DSS3 (UM-UC-9) | drug sensitivity score DSS3 (UM-UC-15) | drug sensitivity score DSS3 (UM-UC-3) | drug sensitivity score DSS3 (UM-UC-17) | drug sensitivity score DSS3 (TCCSUP) |
| --- | --- | --- | --- | --- | --- | --- | --- | --- | --- | --- | --- | --- | --- | --- | --- | --- | --- |
| C[C@H](NCc1ccc(OCc2cccc(F)c2)cc1)C(N)=O [Safinamide Mesylate] (max dose 10000 nM) | 0 | 0 | 0 | 0 | 0 | 0 | 0 | 0 | 0 | 0 | 0 | 0 | 0 | 0 | 0 | 0 | 0 |
| N#C[C@@H]1C[C@@H]2C[C@@H]2N1C(=O)[C@@H](N)C12CC3CC(CC(O)(C3)C1)C2 [Saxagliptin hydrate] (max dose 10000 nM) | 0 | 0 | 0 | 0 | 0 | 0 | 0 | 0 | 0 | 0 | 0 | 0 | 0 | 0 | 0 | 0 | 0 |
| Nc1nc2cc(-c3ccc4ncc(C(=O)N5CCOCC5)n4c3)ccc2o1 [Serabelisib (INK-1117,MLN-1117,TAK-117)] (max dose 10000 nM) | 0.705 | 0 | 0 | 1.22 | 0.0319 | 0.863 | 0.647 | 0 | 0 | 0 | 0 | 0 | 0 | 0 | 0 | 0 | 0.0721 |
| CCC(C)(C)C(=O)O[C@H]1C[C@@H](C)C=C2C=C[C@H](C)[C@H](CC[C@@H]3C[C@@H](O)CC(=O)O3)[C@H]21 [Simvastatin] (max dose 10000 nM) | 0 | 0 | 0 | 0 | 0 | 0 | 0 | 0 | 0 | 0 | 0 | 0 | 0 | 0 | 0 | 0 | 0 |
| Cc1cc(C)nc(SCC(=O)Nc2ncc(Cc3cccc4ccccc34)s2)n1 [SirReal2] (max dose 10000 nM) | 0 | 0.0105 | 0 | 0 | 0 | 0 | 0 | 0 | 0 | 0 | 0 | 0 | 0 | 0 | 0 | 0 | 0 |
| O=C(O)COc1ccc(Br)cc1C=C1SC(=S)N(Cc2cccnc2)C1=O [Skp2 inhibitor C1 (SKPin C1)] (max dose 10000 nM) | 0 | 0 | 0 | 0 | 0 | 0 | 0 | 0 | 0 | 1.26e-05 | 0 | 0 | 0 | 0 | 0 | 0 | 0 |
| O=C(O)CCCc1ccccc1 [Sodium Phenylbutyrate] (max dose 10000 nM) | 0 | 0 | 0 | 0 | 0.581 | 0 | 0 | 0 | 0 | 0 | 0 | 0 | 0 | 14.9 | 0 | 0 | 0 |
| C=CC(=O)Nc1cccc(Nc2nc(Nc3ccc(OCCOC)cc3)ncc2F)c1 [Spebrutinib (CC-292, AVL-292)] (max dose 10000 nM) | 0.158 | 0 | 0 | 0 | 0.392 | 0.307 | 0 | 0 | 0 | 0 | 1.86 | 0 | 0 | 0 | 0 | 0 | 2.58 |
| O=[N+]([O-])c1ccc2c(c1)S(=O)(=O)C=C2 [Stattic] (max dose 10000 nM) | 0 | 0.0293 | 0.8 | 0.195 | 0 | 1.56 | 0 | 0 | 0.119 | 1.25 | 0.743 | 0.438 | 0.0904 | 0.464 | 0.485 | 0 | 0.797 |
| Cc1nnc(NS(=O)(=O)c2ccc(N)cc2)s1 [Sulfamethizole] (max dose 10000 nM) | 0 | 0 | 0 | 0 | 0 | 0 | 0 | 0 | 0 | 0 | 0 | 0 | 0 | 0 | 0 | 0 | 0 |
| CCN(CC)CCNC(=O)c1c(C)[nH]c(/C=C2\C(=O)Nc3ccc(F)cc32)c1C [Sunitinib malate] (max dose 10000 nM) | 0 | 0 | 0 | 0 | 0 | 2.3 | 0 | 0 | 0.668 | 0 | 2.64 | 0 | 0 | 1.55 | 0 | 0 | 4.49 |
| CNC(=O)c1ccc2cc([C@@]3(O)CCn4cncc43)ccc2c1 [TAK-700 (Orteronel)] (max dose 10000 nM) | 0 | 0 | 0 | 0 | 0 | 0 | 0 | 0 | 0 | 0 | 0 | 0 | 0 | 0 | 0 | 0 | 0 |
| COc1ccc(C(=O)Nc2sc3c(c2C(N)=O)CCCC3)cc1OC [TCS 359] (max dose 10000 nM) | 0.247 | 0 | 0 | 0 | 0.0363 | 0 | 0 | 0 | 0 | 0 | 0 | 0 | 0 | 0 | 0 | 0 | 0.575 |
| Nc1nc(N)c2nc(-c3cccc(O)c3)c(-c3cccc(O)c3)nc2n1 [TG100-115] (max dose 10000 nM) | 0 | 0 | 0 | 0 | 0 | 0 | 0 | 0 | 0 | 0 | 0 | 0 | 0 | 0 | 0 | 0 | 0 |
| Cc1cc(C(C)Nc2ccccc2)c2nc(N3CCOCC3)cc(=O)n2c1 (stereo not drawn) [TGX-221] (max dose 10000 nM) | 0 | 0 | 0 | 0 | 0 | 0.346 | 0 | 0 | 0 | 0 | 0.858 | 0 | 0 | 0 | 0 | 0 | 2.42 |
| Nc1nc(NC2CC2)cc(-c2cccc(Cl)c2Cl)n1 [TH588] (max dose 10000 nM) | 0.0563 | 0 | 0 | 0 | 1.51 | 0.813 | 0 | 0 | 0 | 0.462 | 0.771 | 0.784 | 0 | 0 | 0 | 1.71 | 1.04 |
| NC(=O)Nc1sc(-c2ccc(F)cc2)cc1C(N)=O [TPCA-1] (max dose 10000 nM) | 0 | 0.518 | 0 | 0 | 0.895 | 0.837 | 0 | 0 | 0 | 0 | 0.218 | 0.497 | 0 | 0 | 3.02 | 0 | 2.13 |
| CC/C(=C(\c1ccccc1)c1ccc(OCCN(C)C)cc1)c1ccccc1 [Tamoxifen Citrate] (max dose 10000 nM) | 0 | 0 | 0 | 0 | 0.178 | 0 | 0.229 | 0 | 0 | 0.732 | 0 | 0 | 0 | 0 | 0.168 | 0 | 0 |
| Cn1nnc2c(C(N)=O)ncn2c1=O [Temozolomide] (max dose 10000 nM) | 1.61 | 0.374 | 0.09 | 0.132 | 1.16 | 1.19 | 0 | 0 | 0.0547 | 0.694 | 1.42 | 0.183 | 1.89 | 0 | 1.58 | 0.121 | 0.102 |
| CC[C@H](Nc1ncnc2[nH]cnc12)c1oc2ccccc2c(=O)c1-c1cccc(F)c1 [Tenalisib (RP6530)] (max dose 10000 nM) | 0 | 0 | 0 | 0 | 0 | 0 | 0 | 0 | 0.0195 | 0.00599 | 0 | 0 | 0 | 0 | 0 | 0 | 0 |
| Clc1ccccc1CN1CCc2sccc2C1 [Ticlopidine HCl] (max dose 10000 nM) | 0 | 0 | 0 | 0.0692 | 0 | 0 | 0 | 0 | 0 | 0 | 0 | 0 | 0 | 0 | 0 | 0 | 0 |
| CC[C@@]1(O)C(=O)OCc2c1cc1n(c2=O)Cc2cc3c(CN(C)C)c(O)ccc3nc2-1 [Topotecan HCl] (max dose 10000 nM) | 5.23 | 3.27 | 3.61 | 15.4 | 13.4 | 37.7 | 17.4 | 10.3 | 24.5 | 15.6 | 39.4 | 26.5 | 7.66 | 1.94 | 23.8 | 4.47 | 38.6 |
| CN(C)CCOc1ccc(/C(=C(/CCCl)c2ccccc2)c2ccccc2)cc1 [Toremifene Citrate] (max dose 10000 nM) | 0 | 0 | 0 | 0 | 0 | 0.119 | 0 | 0 | 0 | 0 | 0 | 0 | 0 | 0 | 0 | 0 | 0 |
| CC(C=CC(=O)NO)=CC(C)C(=O)c1ccc(N(C)C)cc1 (stereo not drawn) [Trichostatin A (TSA)] (max dose 10000 nM) | 3.21 | 1.76 | 1.34 | 2.03 | 2.61 | 3.85 | 9.98 | 11.9 | 2.68 | 3.84 | 8.19 | 2.27 | 2.75 | 13 | 8.86 | 20 | 13.7 |

In another format: 2 of the compounds above.
SMILES	drug sensitivity score DSS3 (SCaBER)	drug sensitivity score DSS3 (T-24)	drug sensitivity score DSS3 (SW780)	drug sensitivity score DSS3 (UM-UC-5)	drug sensitivity score DSS3 (UM-UC-14)	drug sensitivity score DSS3 (BC8149)	drug sensitivity score DSS3 (UM-UC-12)	drug sensitivity score DSS3 (J82)	drug sensitivity score DSS3 (UM-UC-18)	drug sensitivity score DSS3 (UM-UC-6)	drug sensitivity score DSS3 5637	drug sensitivity score DSS3 (UM-UC-1)	drug sensitivity score DSS3 (UM-UC-9)	drug sensitivity score DSS3 (UM-UC-15)	drug sensitivity score DSS3 (UM-UC-3)	drug sensitivity score DSS3 (UM-UC-17)	drug sensitivity score DSS3 (TCCSUP)
Cc1nnc(NS(=O)(=O)c2ccc(N)cc2)s1 [Sulfamethizole] (max dose 10000 nM)	0	0	0	0	0	0	0	0	0	0	0	0	0	0	0	0	0
CCN(CC)CCNC(=O)c1c(C)[nH]c(/C=C2\C(=O)Nc3ccc(F)cc32)c1C [Sunitinib malate] (max dose 10000 nM)	0	0	0	0	0	2.3	0	0	0.668	0	2.64	0	0	1.55	0	0	4.49
